This note sets out measurements from PubChem BioAssay AID220 (DTP/NCI, 2004).

The list does not hold the whole screen: it is rich in T/C values a quarter to a half above the control, in often repeated tests (any T/C) and in doses without a T/C. Further doses and runs are listed elsewhere. T/C is the treated group as % of the vehicle group. Schedule codes are those of the source, read here as Q, the interval in days (D) or hours (H), X, the number of doses. Some T/C values are followed by the survivors on the day toxicity was checked, most often the fifth; without a count, all were alive then. Some entries were tested several times; the results are listed from low to high. Some doses have a count of surviving animals in place of a T/C: the source files T/C as zero there, which appears to mark a toxic dose or a test without result, not a measured value. Survivors were counted at the toxicity check, usually on the fifth day, unless a day is given; later deaths do not show.

The assay deals with CD8F1 mice, subcutaneous mammary adenocarcinoma, T/C%. Nature of the assay: NCI In Vivo Anticancer Drug Screen. Data for tumor model Mammary Adenocarcinoma CD8F1 (subcutaneous) in CD8F1. The settings on record: higher T/C = larger tumour. An outline of the steps:
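Transplantable tumors were established in mice, animals were dosed with compound or vehicle, and survival or tumor size was then measured in both groups. The treated result was divided by the control result.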

Where [1] appears, read: T/C endpoint: median tumor weight (est.), dose: 100.0 mg/kg/injection, schedule: Q07DX005 (ip), vehicle: saline with Tween-80, evaluated on day 30.
[2] abbreviates: T/C endpoint: median tumor weight change, dose: 125.0 mg/kg/injection, schedule: Q01DX001 (ip), vehicle: saline with Tween-80.
Where [3] appears, read: T/C endpoint: median tumor weight change, dose: 250.0 mg/kg/injection, schedule: Q01DX001 (ip), vehicle: saline with Tween-80.

`CC1(C)COCN1COCCOCN1COCC1(C)C`: the T/C (T/C endpoint: median tumor weight change, dose: 12.5 mg/kg/injection, schedule: Q01DX001 (ip), vehicle: saline, evaluated on day 43) is 135 % of control. For the same compound, the survivor count reads like this: (T/C endpoint: median tumor weight change, dose: 200.0 mg/kg/injection, schedule: Q01DX001 (ip), vehicle: saline) 2 of 10 on day 43; (T/C endpoint: median tumor weight change, dose: 500.0 mg/kg/injection, schedule: Q01DX001 (ip), vehicle: saline) 1 of 10 on day 26; (T/C endpoint: median tumor weight change, dose: 1000.0 mg/kg/injection, schedule: Q01DX001 (ip), vehicle: saline) 0 of 10 on day 26.
For the compound `C1CC[N-]CC1.[Cl][Pt+2][Cl].[NH-]C1CC1`, the survivor count runs as follows: (T/C endpoint: median tumor weight change, dose: 125.0 mg/kg/injection, schedule: Q01DX001 (ip), vehicle: distilled water + Tween-80) 5 of 10 on day 31; (T/C endpoint: median tumor weight change, dose: 250.0 mg/kg/injection, schedule: Q01DX001 (ip), vehicle: distilled water + Tween-80) 2 of 10 on day 31; (T/C endpoint: median tumor weight change, dose: 250.0 mg/kg/injection, schedule: Q01DX001 (ip), vehicle: water) 4 of 10 on day 28; (T/C endpoint: median tumor weight change, dose: 500.0 mg/kg/injection, schedule: Q01DX001 (ip), vehicle: distilled water + Tween-80) 0 of 10 on day 31; (T/C endpoint: median tumor weight change, dose: 500.0 mg/kg/injection, schedule: Q01DX001 (ip), vehicle: water) 0 of 10 on day 28.
On to `COc1c(O)c2c(c3cc(C(=O)N4CCc5c4c(O)c(OC)c4[nH]c(C(=O)N6CC7CC78C6=CC(=O)c6[nH]cc(C)c68)cc54)[nH]c13)CCN2C(N)=O` (configuration not stated), for which the survivor count reads like this: (T/C endpoint: median tumor weight (est.), dose: 25.0 micrograms/kg/injection, schedule: Q07DX005 (ip), vehicle: DMSO) 5 of 10 on day 30; (T/C endpoint: median tumor weight (est.), dose: 50.0 micrograms/kg/injection, schedule: Q07DX005 (ip), vehicle: DMSO) 4 of 10 on day 30; (T/C endpoint: median tumor weight (est.), dose: 100.0 micrograms/kg/injection, schedule: Q07DX005 (ip), vehicle: DMSO) 0 of 10 on day 30; (T/C endpoint: median tumor weight (est.), dose: 200.0 micrograms/kg/injection, schedule: Q07DX005 (ip), vehicle: DMSO) 0 of 10 on day 30.
As to `CCCCCCCCCCC(OC(C)=O)C1CCC(C2CCC(C(O)CCCCCCCCCCCCC3C=C(C)OC3=O)O2)O1` (configuration not stated), the T/C is 137 % of control (T/C endpoint: median tumor weight change, dose: 2.5 mg/kg/injection, schedule: Q01DX001 (ip), vehicle: water, evaluated on day 33); 140 % of control [8 of 10 alive on day 33] (T/C endpoint: median tumor weight change, dose: 5.0 mg/kg/injection, schedule: Q01DX001 (ip), vehicle: water, evaluated on day 33); 146 % of control (T/C endpoint: median tumor weight change, dose: 20.0 mg/kg/injection, schedule: Q01DX001 (ip), vehicle: water, evaluated on day 33).
In the case of `NNC(=S)N/N=C/c1ccccn1`, where the note is “T/C endpoint: median tumor weight (est.), dose: 100.0 mg/kg/injection, schedule: Q07DX005 (ip), vehicle: saline with Tween-80”, the survivor count was 2 of 10 on day 30.
Take `O=CN(SSN(C=O)C1CCCCC1)C1CCCCC1`: the T/C was 133 % of control [9 of 10 alive on day 30] (T/C endpoint: median tumor weight (est.), dose: 12.5 mg/kg/injection, schedule: Q07DX005 (ip), vehicle: saline with Tween-80, evaluated on day 30) and 131 % of control [8 of 10 alive on day 30] under setting [1]. The survivor count (T/C endpoint: median tumor weight (est.), dose: 400.0 mg/kg/injection, schedule: Q07DX005 (ip), vehicle: saline with Tween-80) is recorded as 3 of 10 on day 30.
`NC(=O)c1cn(C2OC(CO)C(O)C2O)c2ncnc(N)c12` (configuration not stated): the survivor count is given as 5 of 10 on day 30 (T/C endpoint: median tumor weight (est.), dose: 0.5 mg/kg/injection, schedule: Q07DX005 (ip), vehicle: suspension in saline); 6 of 10 on day 30 (T/C endpoint: median tumor weight (est.), dose: 8.0 mg/kg/injection, schedule: Q07DX005 (ip), vehicle: suspension in saline); 0 of 10 on day 30 (T/C endpoint: median tumor weight (est.), dose: 400.0 mg/kg/injection, schedule: Q07DX005 (ip), vehicle: suspension in saline); 0 of 10 on day 30 (T/C endpoint: median tumor weight (est.), dose: 800.0 mg/kg/injection, schedule: Q07DX005 (ip), vehicle: suspension in saline); 0 of 10 on day 30 (T/C endpoint: median tumor weight (est.), dose: 1600.0 mg/kg/injection, schedule: Q07DX005 (ip), vehicle: suspension in saline); 0 of 10 on day 27 (T/C endpoint: median tumor weight change, dose: 10.0 mg/kg/injection, schedule: Q01DX001 (ip), vehicle: suspension in saline). Further, under “T/C endpoint: median tumor weight change, dose: 20.0 mg/kg/injection, schedule: Q01DX001 (ip), vehicle: suspension in saline”, the survivor count is 0 of 10 on day 27. Moreover, where the note is “T/C endpoint: median tumor weight (est.), dose: 1.0 mg/kg/injection, schedule: Q07DX005 (ip), vehicle: suspension in saline, evaluated on day 30”, the T/C was 126 % of control.
Take `CN1CCN(CCCN2c3ccccc3Sc3ccc(C(F)(F)F)cc32)CC1`: the T/C (T/C endpoint: median tumor weight (est.), dose: 50.0 mg/kg/injection, schedule: Q07DX005 (ip), vehicle: saline with Tween-80, evaluated on day 30) was 149 % of control.
Regarding `O/N=C/c1ccccc1O.O/N=C/c1ccccc1O.[Cu]`, under “T/C endpoint: median tumor weight change, dose: 15.6 mg/kg/injection, schedule: Q01DX001 (ip), vehicle: saline with Tween-80, evaluated on day 36”, the T/C is 128 % of control. The survivor count runs as follows: under setting [2], 0 of 10 on day 36; under setting [3], 0 of 10 on day 36.
For the compound `COc1ccc2c(c1)CCC(c1ccccc1)=C2c1ccc(OCCN2CCCC2)cc1`, where the note is “T/C endpoint: median tumor weight (est.), dose: 200.0 mg/kg/injection, schedule: Q07DX005 (ip), vehicle: Klucel (hydroxypropylcellulose) (HPC)”, the survivor count is listed as 2 of 10 on day 30.
Turning to `CN(C)c1ccc2c(N(C)C)cc(N(C)C)nc2c1`, the T/C (T/C endpoint: median tumor weight (est.), dose: 3.12 mg/kg/injection, schedule: Q07DX005 (ip), vehicle: Klucel (hydroxypropylcellulose) (HPC), evaluated on day 32) was 126 % of control and the T/C (T/C endpoint: median tumor weight (est.), dose: 6.25 mg/kg/injection, schedule: Q07DX005 (ip), vehicle: Klucel (hydroxypropylcellulose) (HPC), evaluated on day 32) is 144 % of control [8 of 10 alive].
Regarding `CC(=O)NCCCCCCNC(C)=O`, the T/C (T/C endpoint: median tumor weight change, dose: 500.0 mg/kg/injection, schedule: Q01DX001 (ip), vehicle: saline, evaluated on day 31) is 130 % of control. Also, for the setting “T/C endpoint: median tumor weight change, dose: 4000.0 mg/kg/injection, schedule: Q01DX001 (ip), vehicle: saline”, the survivor count was 4 of 9 on day 28.
Take `C[C@]12CC[C@@H]3c4ccc(O)cc4CC[C@H]3[C@@H]1CC[C@@H]2O`: the T/C (T/C endpoint: median tumor weight (est.), dose: 50.0 mg/kg/injection, schedule: Q07DX005 (ip), vehicle: Klucel (hydroxypropylcellulose) (HPC), evaluated on day 30) was 6 [9 of 10 alive on day 30], 46, 65 [9 of 10 alive], 111 % of control; the T/C (T/C endpoint: median tumor weight (est.), dose: 100.0 mg/kg/injection, schedule: Q07DX005 (ip), vehicle: Klucel (hydroxypropylcellulose) (HPC), evaluated on day 30) was 14 [9 of 10 alive on day 30], 41, 45 [7 of 10 alive], 136 % of control; the T/C (T/C endpoint: median tumor weight (est.), dose: 200.0 mg/kg/injection, schedule: Q07DX005 (ip), vehicle: Klucel (hydroxypropylcellulose) (HPC), evaluated on day 30) was 7 [9 of 10 alive on day 30], 36, 42 [7 of 10 alive], 136 % of control [9 of 10 alive on day 30].
As to `Clc1ccc(CN2COc3c(ccc4cccnc34)C2)cc1Cl`, the T/C under setting [1] was 137 % of control. The survivor count (T/C endpoint: median tumor weight (est.), dose: 800.0 mg/kg/injection, schedule: Q07DX005 (ip), vehicle: saline with Tween-80) is 1 of 10 on day 30.
Turning to `ClC1=C(Cl)C(Cl)=C(Cl)C1=Cc1ccccc1`, the survivor count is, setting by setting: under setting [2], 1 of 10 on day 24; under setting [3], 0 of 10 on day 24; (T/C endpoint: median tumor weight change, dose: 500.0 mg/kg/injection, schedule: Q01DX001 (ip), vehicle: saline with Tween-80) 0 of 10 on day 24; (T/C endpoint: median tumor weight change, dose: 600.0 mg/kg/injection, schedule: Q01DX001 (ip), vehicle: saline with Tween-80) 1 of 10 on day 39; (T/C endpoint: median tumor weight change, dose: 1200.0 mg/kg/injection, schedule: Q01DX001 (ip), vehicle: saline with Tween-80) 0 of 10 on day 39.
For `C[N+](C)(C)c1ncnc2c1ncn2C1CCCO1` (configuration not stated), for the setting “T/C endpoint: median tumor weight (est.), dose: 200.0 mg/kg/injection, schedule: Q07DX005 (ip), vehicle: saline”, the survivor count is recorded as 1 of 10.
Take `CO[C@@H]1[C@H](O)CC[C@]2(CO2)[C@H]1[C@@]1(C)O[C@@H]1CC=C(C)C`: the T/C (T/C endpoint: median tumor weight change, dose: 15.6 mg/kg/injection, schedule: Q01DX001 (ip), vehicle: saline with Tween-80, evaluated on day 28) is 130 % of control.
With `O=C1NC2(CCCCC2)C(=O)N1CCN(CCCl)CCCl`, the survivor count was 5 of 10 on day 29 and 5 of 10 on day 35 (T/C endpoint: median tumor weight change, dose: 75.0 mg/kg/injection, schedule: Q01DX001 (ip), vehicle: saline with Tween-80); 1 of 10 on day 29 and 1 of 10 on day 35 (T/C endpoint: median tumor weight change, dose: 150.0 mg/kg/injection, schedule: Q01DX001 (ip), vehicle: saline with Tween-80); 0 of 10 on day 29 (T/C endpoint: median tumor weight change, dose: 300.0 mg/kg/injection, schedule: Q01DX001 (ip), vehicle: saline with Tween-80).
